Some of the results follow. Further columns of the screen follow, without active or inactive calls. The list favours compounds with an active or inconclusive main result. The note in brackets gives the kind of curve behind each potency; many fits are weak.

The assay can be described thus: qHTS Assay for Modulators of Lamin A Splicing. The settings on record: HeLa LMNA splicing GFP/RFP minigene ratio, 48 h. The method in brief: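 Read-out is the ratio of GFP to DsRed2 object intensity, acquired by 488 nm laser-scanning cytometry on HeLa lamin A-EGFP minigene reporter cells. Compound incubation 48 hrs at 37 °C in Opti-MEM with 2% FBS; DMSO 0.5% final.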
Background: qHTS replaces the single test concentration by a dilution series.

[1] abbreviates: measured here: RFP viability control channel.
[2] abbreviates: measured here: GFP splicing reporter channel.

In the case of `COC(=O)c1sc(NC(=O)c2ccc(Cn3cc(Cl)cn3)o2)c(C#N)c1C`, the AC50 under setting [1] was 15.8 µM [rising, single point]. With `CCCCOc1ccc(OCCNS(=O)(=O)N(C)C)cc1`, under setting [1], the AC50 was 15.8 µM [rising, single point]. In the case of `COc1ccc(-c2ccc(SCC(=O)N3c4ccccc4CC3C)nn2)cc1OC` (centres undefined), the AC50 under setting [1] is 14.1 µM [rising, partial curve]. With `Cc1ccc(OCCN2C(=O)C(=O)c3cc(C)ccc32)cc1`, the half-maximal activity concentration (AC50) under setting [1] was 0.0251 µM [rising, full curve, poor fit]. The same measure, in the same setting: for `CC1=CC(=O)OC1Cc1ccncc1` (centres undefined) the value was 5.62 µM [falling, single point]. For `COC(=O)CC/C(=N/Nc1ccc(Cl)c(Cl)c1)C(=O)OC`, the concentration at half-maximal activity (AC50) under setting [2] is 0.501 µM [falling, full curve, poor fit]. For `Cn1c(=O)[nH]c(=O)c2c1nc(N1CCCC1)n2CCCSc1nnnn1-c1ccccc1`, under setting [1], the AC50 is 2.24 µM [falling, partial curve, poor fit].

`CCN(Cc1ccccc1)c1ccc(/C=N/NS(=O)(=O)c2ccc(C)c([N+](=O)[O-])c2)cc1`: the AC50 under setting [1] was 35.5 µM [rising, partial curve]. Regarding `C=CCN(c1ccccc1)S(=O)(=O)c1ccc2c(c1)oc(=O)n2C`, the half-maximal activity concentration (AC50) under setting [1] is 6.31 µM [rising, single point]. The same measure, in the same setting: as for `CC(C)CN(C#N)c1nc(N2CCOCC2)nc(N2CCOCC2)n1`, the figure is 12.6 µM [rising, single point]. In the case of `Cc1ccc(-n2ncc(C(=O)NCc3ccc4c(c3)OCO4)c2C2CCN(C(=O)OC(C)(C)C)CC2)cc1C`, under setting [2], the AC50 was 0.0501 µM [falling, full curve, poor fit].

Take `COc1ccc(CN2CCCN(CC(=O)Nc3ccc(Br)cc3F)S2(=O)=O)cc1`: the half-maximal activity concentration (AC50) is 17.8 µM [falling, partial curve] under setting [2] and 7.94 µM [falling, full curve, poor fit] under setting [1]. In the case of `N#C/C(=C/c1cn(CC(=O)O)c2ccccc12)C(=O)Nc1ccccc1`, the concentration at half-maximal activity (AC50) under setting [2] is 0.0224 µM [rising, full curve, poor fit]. For the compound `O=C(Nc1ccc2ccccc2c1)/C(=C/c1cccc(Br)c1)NC(=O)c1ccco1`, the concentration at half-maximal activity (AC50) by setting is: under setting [2], 10 µM [rising, partial curve, poor fit]; under setting [1], 20 µM [rising, partial curve, poor fit]. On to `COc1cccc(/C=N/NC(=O)CNC(=O)c2ccc3c(c2)OCCO3)c1O`, for which, under setting [1], the half-maximal activity concentration (AC50) was 31.6 µM [rising, single point]. Turning to `CC(C)c1cccc(C(C)C)c1NC(=O)CNCc1ccccc1F`, the AC50 under setting [2] is 31.6 µM [rising, single point]. With `COC(=O)C1=NNC2(c3ccc(C)cc3)C(=O)N(c3ccc(C)cc3)C(=O)C12` (centres undefined), the concentration at half-maximal activity (AC50) under setting [2] was 35.5 µM [falling, single point] and the AC50 under setting [1] was 17.8 µM [falling, single point].

As for `Cc1cccc2sc(N(Cc3cccnc3)C(=O)CCS(=O)(=O)c3ccccc3)nc12`, under setting [1], the concentration at half-maximal activity (AC50) is 0.0708 µM [falling, full curve, poor fit].

Regarding `COc1ccc(-c2cc(C(F)(F)F)nc(S(C)(=O)=O)n2)cc1OC`, the AC50 by setting is: under setting [2], 5.62 µM [falling, full curve]; under setting [1], 5.01 µM [falling, full curve]. With `CCCCn1c(CN2CCN(C(=O)OCC)CC2)nc2c1c(=O)n(C)c(=O)n2C`, the AC50 under setting [1] was 0.501 µM [rising, full curve, poor fit]. As to `NC(=S)NN=C1C2CC3CC(C2)CC1C3`, under setting [2], the AC50 was 0.891 µM [rising, partial curve]. On to `Cc1ccccc1OCCOc1cccc(/C=N/NC(=O)Cc2nnc(N)s2)c1`, for which the AC50 under setting [2] was 11.2 µM [rising, single point] and the AC50 under setting [1] is 31.6 µM [rising, single point].

As for `O=C(NC(=S)Nc1ccc(N2CCCCC2)cc1)c1ccc2c(c1)OCCO2`, the AC50 runs as follows: under setting [2], 3.16 µM [rising, full curve]; under setting [1], 5.62 µM [rising, partial curve]. Take `Cc1ccc(NC(=O)Cc2ccc3c(c2)CCCC3)cc1C`: the half-maximal activity concentration (AC50) under setting [1] was 14.1 µM [rising, partial curve]. Still for that read-out and setting: as for `CCOc1ccc(NC(=O)c2ccc3c(c2)N(Cc2ccc(F)cc2)C(=O)CS3=O)cc1` (centres undefined), the figure is 35.5 µM [rising, single point]. Take `Cc1cccc(-c2nc(SCc3cc(=O)c4cccc(F)c4[nH]3)n[nH]2)c1`: the AC50 under setting [2] is 0.562 µM [rising, single point]. Take `CCN(CC)c1ccc(C(=O)Nc2cccc(F)c2)cc1`: the AC50 under setting [1] was 12.6 µM [rising, single point].

In the case of `COC(=O)c1cccc(NC(=O)CCc2cc(OC)c(OC)c(OC)c2)c1`, the concentration at half-maximal activity (AC50) runs as follows: under setting [2], 5.01 µM [rising, partial curve]; under setting [1], 15.8 µM [rising, single point].

Regarding `CCc1ccccc1NC(=O)CN(C)C(=O)CSc1nc2cc(Cl)ccc2s1`, the AC50 reads like this: under setting [2], 5.01 µM [rising, partial curve]; under setting [1], 12.6 µM [rising, partial curve]. `O=C(NCCS(=O)(=O)N1CCN(c2ccccc2F)CC1)c1ccccc1C(F)(F)F`: the AC50 is 2.51 µM [falling, partial curve, poor fit] under setting [2] and 0.00447 µM [falling, full curve, poor fit] under setting [1].

Consider `COc1ccccc1Cc1nc(-c2ccc(C)cc2)no1`, for which the AC50 is, setting by setting: under setting [2], 11.2 µM [rising, single point]; under setting [1], 15.8 µM [rising, single point]. Regarding `O=C(N/N=C/C=C/c1cccc([N+](=O)[O-])c1)C(O)c1ccccc1` (centres undefined), the AC50 under setting [2] was 31.6 µM [rising, single point]. Regarding `O=C1COc2ccc(C(=O)/C=C/c3ccccc3)cc2N1`, the AC50 runs as follows: under setting [2], 7.08 µM [falling, partial curve, poor fit]; under setting [1], 4.47 µM [falling, full curve, poor fit].

Take `CCOC(=O)c1c(NC(=S)NC)sc2c1CC(C)(C)SC2`: the AC50 under setting [1] is 35.5 µM [rising, single point]. `CCOc1ccc(-c2nnn(CC(=O)c3ccc4c(c3)OCCO4)n2)cc1OCC`: the concentration at half-maximal activity (AC50) under setting [1] is 31.6 µM [rising, partial curve]. `CCCCOP(=O)(c1ccc(N(C)C)cc1)C(O)c1ccccc1F` (centres undefined): the half-maximal activity concentration (AC50) by setting is: under setting [2], 35.5 µM [rising, single point]; under setting [1], 15.8 µM [rising, single point].

As for `CCOCCCNC(=O)/C(C#N)=C/c1cc(C)c(O)c(C)c1`, the AC50 under setting [1] is 20 µM [rising, partial curve, poor fit]. Consider `COc1ccc(OC)c(/C=N\NC(=O)CSc2nnc(CCCc3ccc(OC)c(C)c3)o2)c1`, for which the AC50 under setting [1] is 35.5 µM [rising, single point]. Turning to `CC(C)CC(CO)N1CCN(C(=O)c2ccc(C(C)(C)C)cc2)CCC1=O` (centres undefined), under setting [2], the AC50 is 0.02 µM [falling, full curve, poor fit]. `CC(C)(C)CC(C)(C)NC(=S)NC1CCN(Cc2ccccc2)CC1`: the half-maximal activity concentration (AC50) under setting [1] is 35.5 µM [rising, single point]. As for `CC(C)CC(=O)Nc1nnc(S(=O)(=O)N(C)c2ccc(Cl)cc2)s1`, the half-maximal activity concentration (AC50) under setting [2] was 0.0631 µM [rising, full curve, poor fit]. With `CC(C)Cc1nnc(NC(=O)Cc2cccs2)s1`, the concentration at half-maximal activity (AC50) under setting [1] is 39.8 µM [falling, partial curve, poor fit]. As to `CCN(CC)S(=O)(=O)c1ccc(NC(=O)C2CCCN(C(=O)c3ccc(Cl)cc3)C2)cc1` (centres undefined), the AC50 is 11.2 µM [rising, partial curve] under setting [2] and 14.1 µM [rising, partial curve] under setting [1]. With `Nc1ccc(Br)cc1C(NCC(=O)O)c1ccccc1` (centres undefined), under setting [2], the AC50 is 0.0891 µM [falling, partial curve]. Regarding `O=C(O)CCCCCN=C1CCc2ccccc2N1`, the AC50 under setting [2] was 35.5 µM [falling, single point].

As for `Cc1ccc(NC(=S)NCCc2ccccc2)nc1`, the AC50 under setting [1] was 5.62 µM [rising, full curve]. For the compound `CC(=O)Oc1ccc2c(=O)c(Oc3ccccc3)coc2c1OC(C)=O`, the AC50 under setting [2] is 11.2 µM [rising, partial curve] and the AC50 under setting [1] is 20 µM [rising, partial curve]. Take `Brc1ccc2c(c1)C(c1cccnc1)=NNC(c1cccs1)=N2`: the AC50 under setting [1] is 22.4 µM [rising, partial curve, poor fit]. Regarding `Cc1noc(C)c1C1(O)CCCCCCCCCCC1`, the concentration at half-maximal activity (AC50) under setting [2] was 31.6 µM [rising, single point] and the AC50 under setting [1] was 17.8 µM [rising, single point]. As for `CC(C)SC1=NC(C)(C)C=C(/C=C/c2ccc(Cl)cc2Cl)N1`, the AC50 under setting [2] was 20 µM [falling, single point].

Regarding `Oc1cccc(/C=N/N(Cc2ccccc2)c2ccccc2)c1`, the AC50 reads like this: under setting [2], 0.00316 µM [falling, full curve, poor fit]; under setting [1], 35.5 µM [falling, partial curve]. Consider `CC(C(=O)NCc1ccco1)n1nc(-c2ccccc2)c2cc(Cl)ccc21` (centres undefined), for which the half-maximal activity concentration (AC50) under setting [2] was 25.1 µM [rising, single point].

`CC(=O)C1=C(C)NC(SCC(=O)c2ccccc2)=C(C#N)C1c1ccco1` (centres undefined): the AC50 under setting [2] was 12.6 µM [rising, partial curve].

For the compound `COc1cccc(S(=O)(=O)Nc2ccc3sc(C)nc3c2)c1`, under setting [1], the AC50 is 35.5 µM [rising, single point]. On to `CC(C)SC1=NC(C)(C)C=C(/C=C/c2c(Cl)cccc2Cl)N1`, for which the AC50 under setting [2] was 10 µM [falling, partial curve].

`Cc1c(C(=O)N2CCCCCC2)c(S(=O)(=O)Nc2ccc(OC(F)(F)F)cc2)c(C)n1C`: the AC50 under setting [2] is 35.5 µM [falling, single point]. Regarding `O=C(CN1CCN(S(=O)(=O)c2ccc(Cl)s2)CC1)NCc1ccc(Cl)cc1`, the half-maximal activity concentration (AC50) under setting [1] was 12.6 µM [rising, single point]. Turning to `Cc1cccc2cc(C#N)c(SCC(=O)N3CCC(C)CC3)nc12`, under setting [2], the AC50 is 10 µM [rising, partial curve].

The term AC50 denotes the concentration at which the activity in the assay is half-maximal.

These data come from PubChem BioAssay AID1487 (National Center for Advancing Translational Sciences (NCATS), 2009).
